Measured values as given in US20240117042A1.
No constants are given. Whether binding was seen depends on the method and setting. Some binding calls cover weakened binding; strength is not graded here.

The chains behind the UniProt entries cited, without tags or fusion partners. Residues count along the entry.
UniProt P43630, residues 22-455: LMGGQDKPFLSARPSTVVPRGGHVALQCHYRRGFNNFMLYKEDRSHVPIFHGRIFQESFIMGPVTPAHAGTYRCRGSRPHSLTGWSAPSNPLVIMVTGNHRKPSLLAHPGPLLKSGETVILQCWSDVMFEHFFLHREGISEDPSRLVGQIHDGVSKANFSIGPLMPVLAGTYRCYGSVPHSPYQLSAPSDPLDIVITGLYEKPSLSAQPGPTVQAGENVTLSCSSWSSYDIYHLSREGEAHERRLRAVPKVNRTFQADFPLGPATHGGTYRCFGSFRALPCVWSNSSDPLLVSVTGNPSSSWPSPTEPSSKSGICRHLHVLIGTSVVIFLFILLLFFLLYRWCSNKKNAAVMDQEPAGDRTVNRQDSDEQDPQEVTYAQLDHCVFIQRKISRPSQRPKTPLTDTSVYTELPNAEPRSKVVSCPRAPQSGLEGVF

Key:
[1] = target: human KIR3DL2 on cells (human) (UniProt P43630); assay: IHC at 5 µg/mL on FFPE CTCL samples, Leica Bond RX
[2] = target: human KIR3DL2 on cells (human) (UniProt P43630); assay: IHC on FFPE CTCL biopsies, percent KIR3DL2+ cells estimated by a pathologist, against 12B11 on matched frozen biopsies
[3] = target: human KIR3DL2 on cells (human) (UniProt P43630); assay: IHC on FFPE PTCL tumor samples
[4] = target: human KIR3DL2 on cells (human) (UniProt P43630); assay: IHC at 5 µg/mL on FFPE PTCL samples, Leica Bond RX
[5] = target: human KIR3DL2 on cells (human) (UniProt P43630); assay: IHC on FFPE HuT 78 cell pellets
[6] = target: human KIR3DL2 on cells (human) (UniProt P43630); assay: IHC at 5 µg/mL on CHO/CHO-mb-HuKIR3DL2 mixed FFPE cell pellets, Leica Bond RX
[7] = target: human KIR3DL2 on cells (human) (UniProt P43630); assay: IHC, rabbit IgG at 10, 7.5, 5 and 2.5 µg/mL on FFPE cell pellets, Ventana Benchmark Ultra
[8] = target: human KIR3DL2 on cells (human) (UniProt P43630); assay: IHC on FFPE CHO-mb-HuKIR3DL2 cell pellets, several antibody concentrations, optical density by HistoQuantif (FIG. 6)
[9] = target: human KIR3DL2 on cells (human) (UniProt P43630); assay: IHC at 5 µg/mL on Raji/HuT 78 mixed FFPE cell pellets, Leica Bond RX
[10] = target: human KIR3DL2 on cells (human) (UniProt P43630); assay: IHC on FFPE PTCL biopsies
[11] = target: human KIR3DL2 on cells (human) (UniProt P43630); assay: IHC on FFPE Mycosis Fungoides (CTCL) tumor samples

binding [1]: binds
binding [2]: binds
binding [3]: binds
binding [4]: binds
binding [5]: binds
binding [6]: binds
binding [7]: binds
binding [8]: binds
binding [9]: binds
binding [10]: binds
binding [11]: binds
B1: P3-R4D-H5 rabbit IgG (antibody, V domains shown)
VH: QSLEESGGRLVTPGTPLTLTCTVSGFSLSTYAMSWVRQAPGKGLEWIGIIGASGNTWYASWAKGRFTISKTSTTVGLKITSPTTEDTATYFCARFWAGYPSNAAATVSGMDPWGPGTLVTVSS
VL: ELVLTQSPSLSASLDTTARLACTLSTGYSVGSYGIGWYQQVPGRPPRYLLTYHTEEIKHQGSGVPTRFSGSKDTSENTAVLSISGLQPEDEADYYCATAHGSGSSFHVVFGGGTQLTVT
